{"source": "PubChem BioAssay AID2052", "about": "(NMMLSC, 2009)", "note": "Some of the results follow. Some results for these compounds are left out of this collection, so the calls shown say nothing about other tests."}
{"assay": "modulators of CD8 T cell-vesicle binding, primary screen, mouse 2C CD8+ T cells, flow cytometry (AID 2052);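 further: binding gate set so that unloaded-vesicle control wells show 10% double positive cells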", "details": "2C CD8+ T cell-vesicle binding, measured here: CD8+ vesicle-bound cell fraction, at 7 µM, stronger effect = lower value", "in_short": "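Assay system: 2C TCR transgenic mouse naive CD8+ T cells, MACS-purified | Read-out: CD8+ gate FL2 mean fluorescence as % of same-row positive control | Signal: High-throughput flow cytometry with anti-B7-1 and anti-CD8 staining | Timing: Binding step 1.5 h, 37 °C, antibody labelling 20 min, ice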", "units": {"double positive events": "%"}}
{"smiles": "COc1ccc(Cl)cc1C(=O)NCC1(N(C)C)CCCCC1", "double positive events": 56.3}
{"smiles": "COc1cccc(C(=O)NCC2(N3CCCCC3)CCCCC2)c1", "double positive events": 19.8}
{"smiles": "O=C(NCC1(N2CCCCC2)CCCCC1)c1cccc(Cl)c1", "double positive events": 17.5}
{"smiles": "CN(C)C1(CNC(=O)c2ccc(Br)cc2)CCCCC1", "double positive events": 55.2}
{"smiles": "COc1cc(C(=O)NCC2(N(C)C)CCCCC2)c([N+](=O)[O-])cc1OC", "double positive events": 10.6}
{"smiles": "COc1ccc(Br)c(C(=O)NCC2(N3CCCCC3)CCCCC2)c1", "double positive events": 11.9}
{"smiles": "CC(C)Oc1ccc(C(=O)NCC2(N(C)C)CCCCC2)cc1", "double positive events": 63.2}
{"smiles": "CN(C)c1cccc(C(=O)NCC2(N(C)C)CCCCC2)c1", "double positive events": 53.4}
{"smiles": "COc1cc(SC)ccc1C(=O)NCC1(N(C)C)CCCCC1", "double positive events": 34.5}
{"smiles": "CCCCC(CC)C(=O)N1CCN(C/C=C/c2ccccc2)CC1", "note": "(stereo not given)", "double positive events": 38}
{"smiles": "CC(C)N1C(=O)CC2(CCN(CCOC(=O)C(O)(c3ccccc3)c3ccccc3)CC2)C1=O", "double positive events": 0.7}
{"smiles": "Cc1ccc(C(=O)NCC2(N3CCCCC3)CCCCC2)cc1", "double positive events": 11.3}
{"smiles": "O=C(NCC1(N2CCCCC2)CCCCC1)c1cc([N+](=O)[O-])ccc1Cl", "double positive events": 17.8}
{"smiles": "O=C(NCC1(N2CCCCC2)CCCCC1)c1cc(F)c(F)cc1Cl", "double positive events": 8.3}
{"smiles": "C=CCN1CCN(CCOC(=O)C(O)(c2ccccc2)c2ccccc2)CC1", "double positive events": 32.3}
{"smiles": "COc1ccc(C(=O)NCC2(N(C)C)CCCCC2)cc1", "double positive events": 58.9}
{"smiles": "O=C(NCC1(N2CCCCC2)CCCCC1)c1cccc(Br)c1", "double positive events": 14.3}
{"smiles": "Cc1cc(C(=O)NCC2(N3CCCCC3)CCCCC2)ccc1[N+](=O)[O-]", "double positive events": 20.6}
{"smiles": "CN(C)c1ccc(C(=O)NCC2(N(C)C)CCCCC2)cc1", "double positive events": 32.5}
{"smiles": "Cc1ccccc1C(=O)NCC1(N2CCCCC2)CCCCC1", "double positive events": 10.7}
